Experimental data taken from paper PMC5581032.
These are yes or no findings as the source states them, for the method shown. In cells and extracts the contact can be indirect. Binding calls can cover weak binding; strength is not graded here.

Protein sequences, listed by entry. Tags and fused reporters are not part of them. Lines headed by an entry give the natural chain unless they say otherwise; changes in a name come on top.
UniProt P03230: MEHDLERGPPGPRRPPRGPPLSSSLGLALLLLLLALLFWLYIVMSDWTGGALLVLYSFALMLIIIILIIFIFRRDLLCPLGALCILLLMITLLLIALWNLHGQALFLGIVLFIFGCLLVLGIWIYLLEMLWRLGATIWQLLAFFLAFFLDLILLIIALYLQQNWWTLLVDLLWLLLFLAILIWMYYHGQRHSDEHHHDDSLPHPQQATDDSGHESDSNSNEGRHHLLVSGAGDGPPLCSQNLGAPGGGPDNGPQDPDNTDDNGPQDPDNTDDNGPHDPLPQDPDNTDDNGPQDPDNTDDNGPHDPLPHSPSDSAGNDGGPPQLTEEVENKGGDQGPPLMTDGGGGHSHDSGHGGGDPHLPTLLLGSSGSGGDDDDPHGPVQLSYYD
UniProt P06396: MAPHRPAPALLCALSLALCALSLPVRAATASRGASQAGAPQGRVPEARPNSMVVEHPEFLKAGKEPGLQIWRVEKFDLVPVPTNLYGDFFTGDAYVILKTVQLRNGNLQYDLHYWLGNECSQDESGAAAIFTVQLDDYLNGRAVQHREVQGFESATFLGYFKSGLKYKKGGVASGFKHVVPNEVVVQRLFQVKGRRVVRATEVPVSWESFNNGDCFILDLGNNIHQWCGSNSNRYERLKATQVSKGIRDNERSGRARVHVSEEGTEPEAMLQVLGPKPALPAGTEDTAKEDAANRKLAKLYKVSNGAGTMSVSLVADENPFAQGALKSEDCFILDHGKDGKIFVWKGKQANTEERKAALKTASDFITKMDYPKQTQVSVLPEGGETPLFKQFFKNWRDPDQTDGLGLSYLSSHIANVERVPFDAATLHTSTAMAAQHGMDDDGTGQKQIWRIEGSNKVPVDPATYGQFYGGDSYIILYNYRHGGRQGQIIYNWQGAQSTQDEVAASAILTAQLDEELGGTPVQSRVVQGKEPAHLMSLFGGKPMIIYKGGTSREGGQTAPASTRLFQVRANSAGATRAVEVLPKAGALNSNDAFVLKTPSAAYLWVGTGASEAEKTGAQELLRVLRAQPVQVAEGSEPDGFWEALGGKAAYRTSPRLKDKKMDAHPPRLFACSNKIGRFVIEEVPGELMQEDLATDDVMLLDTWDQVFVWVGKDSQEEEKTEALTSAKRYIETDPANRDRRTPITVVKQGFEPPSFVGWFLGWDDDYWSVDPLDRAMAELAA

Biological target: Flag-tagged full-length Epstein-Barr virus latent membrane protein 1 (LMP1) (Epstein-Barr virus) (UniProt P03230)
Test: co-IP; lysates of HEK293T cells transfected with Flag-LMP1 or Flag-LMP1ΔCT; anti-Flag IP (2 ug antibody, overnight, 4°C, protein A/G plus-Agarose), 4 washes with cold IP lysis buffer; anti-Flag and anti-gelsolin immunoblot

## gelsolin (from UniProt P06396)
  binding: binds
